Reference: patent WO1994018227A2
No constants are given. Whether binding was seen depends on the method and setting. Some results given as binding are weak or reduced against the parent protein; the word gives no strength.

Protein sequences, listed by entry. Tags and fused reporters are not part of them. Residues count along the entry.
UniProt Q07954, residues 20-4544: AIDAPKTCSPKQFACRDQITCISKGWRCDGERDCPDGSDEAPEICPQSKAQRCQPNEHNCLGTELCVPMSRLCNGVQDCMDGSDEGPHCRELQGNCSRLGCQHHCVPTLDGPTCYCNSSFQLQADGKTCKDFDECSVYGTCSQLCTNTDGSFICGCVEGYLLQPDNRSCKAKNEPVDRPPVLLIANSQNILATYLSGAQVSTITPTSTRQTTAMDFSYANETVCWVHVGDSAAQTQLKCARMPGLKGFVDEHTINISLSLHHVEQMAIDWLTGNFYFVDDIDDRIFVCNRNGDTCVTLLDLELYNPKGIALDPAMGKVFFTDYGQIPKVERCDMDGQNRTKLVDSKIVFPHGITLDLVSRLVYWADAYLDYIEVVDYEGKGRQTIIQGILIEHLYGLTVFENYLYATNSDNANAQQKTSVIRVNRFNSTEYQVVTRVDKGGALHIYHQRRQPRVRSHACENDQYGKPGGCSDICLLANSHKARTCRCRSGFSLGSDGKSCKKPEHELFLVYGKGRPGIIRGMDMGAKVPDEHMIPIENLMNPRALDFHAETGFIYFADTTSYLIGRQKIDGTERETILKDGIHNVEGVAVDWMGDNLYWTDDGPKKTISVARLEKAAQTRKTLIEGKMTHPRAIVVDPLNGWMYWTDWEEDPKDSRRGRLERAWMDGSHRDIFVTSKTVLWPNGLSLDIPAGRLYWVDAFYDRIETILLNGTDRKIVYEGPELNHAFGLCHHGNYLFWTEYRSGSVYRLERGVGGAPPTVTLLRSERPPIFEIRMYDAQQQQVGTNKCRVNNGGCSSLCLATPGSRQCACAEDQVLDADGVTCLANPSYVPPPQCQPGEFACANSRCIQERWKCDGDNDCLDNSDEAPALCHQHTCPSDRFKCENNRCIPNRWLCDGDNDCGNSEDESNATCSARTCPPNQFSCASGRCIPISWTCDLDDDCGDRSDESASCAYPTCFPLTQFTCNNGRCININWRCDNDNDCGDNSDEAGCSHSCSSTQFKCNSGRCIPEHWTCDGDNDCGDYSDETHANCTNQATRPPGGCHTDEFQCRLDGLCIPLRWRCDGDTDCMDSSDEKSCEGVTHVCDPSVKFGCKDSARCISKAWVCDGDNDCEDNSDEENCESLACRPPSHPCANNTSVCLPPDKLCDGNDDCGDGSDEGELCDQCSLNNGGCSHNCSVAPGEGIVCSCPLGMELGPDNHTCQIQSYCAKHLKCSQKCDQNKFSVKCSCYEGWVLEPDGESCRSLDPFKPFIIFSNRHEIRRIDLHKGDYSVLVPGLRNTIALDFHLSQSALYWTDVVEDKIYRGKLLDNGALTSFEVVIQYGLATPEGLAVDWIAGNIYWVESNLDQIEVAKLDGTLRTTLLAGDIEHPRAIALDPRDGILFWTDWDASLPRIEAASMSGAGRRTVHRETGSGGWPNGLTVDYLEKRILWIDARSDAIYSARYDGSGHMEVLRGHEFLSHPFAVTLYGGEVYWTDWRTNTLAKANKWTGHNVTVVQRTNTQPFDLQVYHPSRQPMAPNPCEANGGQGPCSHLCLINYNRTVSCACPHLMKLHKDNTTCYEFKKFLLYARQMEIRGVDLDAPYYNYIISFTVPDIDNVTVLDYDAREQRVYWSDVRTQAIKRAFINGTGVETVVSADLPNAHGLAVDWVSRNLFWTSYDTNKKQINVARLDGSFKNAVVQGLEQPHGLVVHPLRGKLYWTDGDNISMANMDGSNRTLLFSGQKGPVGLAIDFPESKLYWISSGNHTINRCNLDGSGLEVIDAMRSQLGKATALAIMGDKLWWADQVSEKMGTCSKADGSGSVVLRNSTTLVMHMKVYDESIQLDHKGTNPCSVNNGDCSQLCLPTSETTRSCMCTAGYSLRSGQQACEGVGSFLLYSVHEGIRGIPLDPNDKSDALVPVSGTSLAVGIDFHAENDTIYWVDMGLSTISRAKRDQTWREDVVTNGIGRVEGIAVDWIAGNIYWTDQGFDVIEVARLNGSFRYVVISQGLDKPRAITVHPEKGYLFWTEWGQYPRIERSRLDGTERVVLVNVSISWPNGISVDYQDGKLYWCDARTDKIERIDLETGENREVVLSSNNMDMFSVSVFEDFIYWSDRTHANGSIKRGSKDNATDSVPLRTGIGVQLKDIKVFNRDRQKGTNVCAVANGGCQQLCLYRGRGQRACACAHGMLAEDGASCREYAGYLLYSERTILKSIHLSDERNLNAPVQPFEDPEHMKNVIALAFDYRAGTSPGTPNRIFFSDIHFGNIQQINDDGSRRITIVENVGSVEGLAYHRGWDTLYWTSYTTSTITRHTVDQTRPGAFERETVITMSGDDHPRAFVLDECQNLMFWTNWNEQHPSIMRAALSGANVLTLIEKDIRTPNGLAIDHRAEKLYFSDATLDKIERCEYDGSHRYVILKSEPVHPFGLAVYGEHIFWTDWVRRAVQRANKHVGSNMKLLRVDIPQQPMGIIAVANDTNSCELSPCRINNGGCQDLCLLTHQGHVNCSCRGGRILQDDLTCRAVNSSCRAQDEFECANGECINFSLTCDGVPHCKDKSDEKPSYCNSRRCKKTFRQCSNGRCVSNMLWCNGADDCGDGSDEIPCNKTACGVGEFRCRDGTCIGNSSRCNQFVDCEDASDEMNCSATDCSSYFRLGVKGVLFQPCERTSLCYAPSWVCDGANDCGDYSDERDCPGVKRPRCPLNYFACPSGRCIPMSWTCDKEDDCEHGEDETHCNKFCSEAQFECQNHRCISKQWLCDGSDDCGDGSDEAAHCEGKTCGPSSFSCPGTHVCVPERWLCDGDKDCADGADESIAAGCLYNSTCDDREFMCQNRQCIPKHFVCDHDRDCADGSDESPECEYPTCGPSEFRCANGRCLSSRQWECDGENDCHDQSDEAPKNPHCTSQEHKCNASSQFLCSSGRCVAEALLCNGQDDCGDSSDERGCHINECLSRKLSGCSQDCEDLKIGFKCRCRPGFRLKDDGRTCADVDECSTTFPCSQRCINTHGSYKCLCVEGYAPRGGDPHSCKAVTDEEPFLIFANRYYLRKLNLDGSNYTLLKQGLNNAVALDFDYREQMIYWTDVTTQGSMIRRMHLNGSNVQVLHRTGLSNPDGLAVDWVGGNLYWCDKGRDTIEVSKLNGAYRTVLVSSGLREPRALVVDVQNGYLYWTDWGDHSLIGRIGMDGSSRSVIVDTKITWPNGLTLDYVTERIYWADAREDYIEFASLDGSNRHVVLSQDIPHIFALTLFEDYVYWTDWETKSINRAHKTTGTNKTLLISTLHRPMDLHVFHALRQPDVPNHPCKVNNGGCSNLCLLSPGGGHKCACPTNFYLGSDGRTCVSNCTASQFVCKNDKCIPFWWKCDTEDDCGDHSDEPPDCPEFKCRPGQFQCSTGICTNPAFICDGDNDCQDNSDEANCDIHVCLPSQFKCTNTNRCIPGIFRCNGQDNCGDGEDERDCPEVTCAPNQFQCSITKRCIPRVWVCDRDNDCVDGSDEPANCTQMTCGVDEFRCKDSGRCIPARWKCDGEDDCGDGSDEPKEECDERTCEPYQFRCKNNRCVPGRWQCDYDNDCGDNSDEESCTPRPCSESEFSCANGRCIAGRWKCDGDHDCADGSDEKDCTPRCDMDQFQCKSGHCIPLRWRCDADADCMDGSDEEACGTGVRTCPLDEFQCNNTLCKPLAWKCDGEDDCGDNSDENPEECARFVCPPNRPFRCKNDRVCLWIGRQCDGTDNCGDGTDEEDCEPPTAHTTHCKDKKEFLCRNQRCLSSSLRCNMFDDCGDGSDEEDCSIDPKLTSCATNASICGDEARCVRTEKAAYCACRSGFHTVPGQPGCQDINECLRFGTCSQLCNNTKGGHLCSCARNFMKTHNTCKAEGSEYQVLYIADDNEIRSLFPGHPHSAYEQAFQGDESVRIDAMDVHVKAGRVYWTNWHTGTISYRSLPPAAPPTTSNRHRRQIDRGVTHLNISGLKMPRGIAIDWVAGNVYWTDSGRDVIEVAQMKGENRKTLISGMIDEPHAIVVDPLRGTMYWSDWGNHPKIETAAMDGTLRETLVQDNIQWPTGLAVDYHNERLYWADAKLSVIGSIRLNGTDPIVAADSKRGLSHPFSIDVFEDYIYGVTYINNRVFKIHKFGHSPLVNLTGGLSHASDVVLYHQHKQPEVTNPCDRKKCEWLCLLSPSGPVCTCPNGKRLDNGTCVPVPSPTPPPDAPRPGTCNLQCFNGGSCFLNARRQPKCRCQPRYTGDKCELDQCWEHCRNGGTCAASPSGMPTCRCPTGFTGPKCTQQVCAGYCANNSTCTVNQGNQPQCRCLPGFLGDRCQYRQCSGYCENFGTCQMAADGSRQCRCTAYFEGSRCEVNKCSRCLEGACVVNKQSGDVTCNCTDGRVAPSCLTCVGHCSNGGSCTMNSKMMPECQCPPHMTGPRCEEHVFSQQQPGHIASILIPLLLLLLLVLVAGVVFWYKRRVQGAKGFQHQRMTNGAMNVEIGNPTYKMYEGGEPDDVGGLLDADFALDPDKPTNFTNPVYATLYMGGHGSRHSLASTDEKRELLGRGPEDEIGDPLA
UniProt P30533, residues 35-357: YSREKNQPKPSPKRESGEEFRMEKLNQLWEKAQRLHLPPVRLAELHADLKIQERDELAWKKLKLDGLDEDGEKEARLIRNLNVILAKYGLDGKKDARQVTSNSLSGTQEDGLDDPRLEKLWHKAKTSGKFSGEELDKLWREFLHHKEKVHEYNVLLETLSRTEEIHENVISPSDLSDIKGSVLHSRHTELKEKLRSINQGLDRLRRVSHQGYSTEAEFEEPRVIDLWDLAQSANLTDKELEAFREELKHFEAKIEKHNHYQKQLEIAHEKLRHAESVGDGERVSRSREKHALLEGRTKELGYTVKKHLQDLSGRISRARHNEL

Molecular target: α2-Macroglobulin Receptor (UniProt Q07954)
Assay: ligand binding to the receptor, assay not described

Row | Substance | binding
1 | recombinant human α2-Macroglobulin Receptor Associated Protein (from UniProt P30533 35-357) | binds
2 | purified natural α2MRAP protein (from UniProt P30533 35-357) | binds
